Results are given in words; binding and its absence hold for the method and conditions named. In cells and extracts the contact can be indirect. Here binding means that the protein was enriched with, or labelled near, the bait; the list need not be complete. Tags and fused reporters may be left off the sequences shown.
T1: TAP-tagged yeast exosome subunit Rrp46 (Saccharomyces cerevisiae) (UniProt P53256)
T1 sequence: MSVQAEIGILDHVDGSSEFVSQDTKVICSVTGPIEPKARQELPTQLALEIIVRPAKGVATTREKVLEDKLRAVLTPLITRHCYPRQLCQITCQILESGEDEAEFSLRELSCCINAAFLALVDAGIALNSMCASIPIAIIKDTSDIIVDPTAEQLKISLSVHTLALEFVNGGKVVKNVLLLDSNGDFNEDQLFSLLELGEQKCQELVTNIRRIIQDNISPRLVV

B1: exosome catalytic subunit Rrp44 (protein, UniProt Q08162 1-1001)
chain: MSVPAIAPRRKRLADGLSVTQKVFVRSRNGGATKIVREHYLRSDIPCLSRSCTKCPQIVVPDAQNELPKFILSDSPLELSAPIGKHYVVLDTNVVLQAIDLLENPNCFFDVIVPQIVLDEVRNKSYPVYTRLRTLCRDSDDHKRFIVFHNEFSEHTFVERLPNETINDRNDRAIRKTCQWYSEHLKPYDINVVLVTNDRLNREAATKEVESNIITKSLVQYIELLPNADDIRDSIPQMDSFDKDLERDTFSDFTFPEYYSTARVMGGLKNGVLYQGNIQISEYNFLEGSVSLPRFSKPVLIVGQKNLNRAFNGDQVIVELLPQSEWKAPSSIVLDSEHFDVNDNPDIEAGDDDDNNESSSNTTVISDKQRRLLAKDAMIAQRSKKIQPTAKVVYIQRRSWRQYVGQLAPSSVDPQSSSTQNVFVILMDKCLPKVRIRTRRAAELLDKRIVISIDSWPTTHKYPLGHFVRDLGTIESAQAETEALLLEHDVEYRPFSKKVLECLPAEGHDWKAPTKLDDPEAVSKDPLLTKRKDLRDKLICSIDPPGCVDIDDALHAKKLPNGNWEVGVHIADVTHFVKPGTALDAEGAARGTSVYLVDKRIDMLPMLLGTDLCSLKPYVDRFAFSVIWELDDSANIVNVNFMKSVIRSREAFSYEQAQLRIDDKTQNDELTMGMRALLKLSVKLKQKRLEAGALNLASPEVKVHMDSETSDPNEVEIKKLLATNSLVEEFMLLANISVARKIYDAFPQTAMLRRHAAPPSTNFEILNEMLNTRKNMSISLESSKALADSLDRCVDPEDPYFNTLVRIMSTRCMMAAQYFYSGAYSYPDFRHYGLAVDIYTHFTSPIRRYCDVVAHRQLAGAIGYEPLSLTHRDKNKMDMICRNINRKHRNAQFAGRASIEYYVGQVMRNNESTETGYVIKVFNNGIVVLVPKFGVEGLIRLDNLTEDPNSAAFDEVEYKLTFVPTNSDKPRDVYVFDKVEVQVRSVMDPITSKRKAELLLK
B2: exosome subunit Rrp4 (protein, UniProt P38792 1-359)
chain: MSEVITITKRNGAFQNSSNLSYNNTGISDDENDEEDIYMHDVNSASKSESDSQIVTPGELVTDDPIWMRGHGTYFLDNMTYSSVAGTVSRVNRLLSVIPLKGRYAPETGDHVVGRIAEVGNKRWKVDIGGKQHAVLMLGSVNLPGGILRRKSESDELQMRSFLKEGDLLNAEVQSLFQDGSASLHTRSLKYGKLRNGMFCQVPSSLIVRAKNHTHNLPGNITVVLGVNGYIWLRKTSQMDLARDTPSANNSSSIKSTGPTGAVSLNPSITRLEEESSWQIYSDENDPSISNNIRQAICRYANVIKALAFCEIGITQQRIVSAYEASMVYSNVGELIEKNVMESIGSDILTAEKMRGNGN
B3: exosome subunit Rrp42 (protein, UniProt Q12277 1-265)
chain: MSLSVAEKSYLYDSLASTPSIRPDGRLPHQFRPIEIFTDFLPSSNGSSRIIASDGSECIVSIKSKVVDHHVENELLQVDVDIAGQRDDALVVETITSLLNKVLKSGSGVDSSKLQLTKKYSFKIFVDVLVISSHSHPVSLISFAIYSALNSTYLPKLISAFDDLEVEELPTFHDYDMVKLDINPPLVFILAVVGNNMLLDPAANESEVANNGLIISWSNGKITSPIRSVALNDSNVKSFKPHLLKQGLAMVEKYAPDVVRSLENL

These binders were tested against T1, TAP-tagged yeast exosome subunit Rrp46 (Saccharomyces cerevisiae) (assay: affinity purification with mass spectrometry; TAP-tagged Rrp46 immunoprecipitated from yeast with IgG beads, gentle wash buffer (150 mM NaCl), no mono-Q step; crude immunoprecipitate, 740 proteins identified by LC-MS/MS).

binding, binds:
B1, B2, B3

From paper PMC4811778 (eLife, 2016)
